# According to the supplement of paper PMC10849652:
# Sequences of proteins named here, by UniProt entry; tags and fusion partners are left off. A change or cut given only in a name is not applied to a line headed by its entry.
# UniProt Q6NZY4: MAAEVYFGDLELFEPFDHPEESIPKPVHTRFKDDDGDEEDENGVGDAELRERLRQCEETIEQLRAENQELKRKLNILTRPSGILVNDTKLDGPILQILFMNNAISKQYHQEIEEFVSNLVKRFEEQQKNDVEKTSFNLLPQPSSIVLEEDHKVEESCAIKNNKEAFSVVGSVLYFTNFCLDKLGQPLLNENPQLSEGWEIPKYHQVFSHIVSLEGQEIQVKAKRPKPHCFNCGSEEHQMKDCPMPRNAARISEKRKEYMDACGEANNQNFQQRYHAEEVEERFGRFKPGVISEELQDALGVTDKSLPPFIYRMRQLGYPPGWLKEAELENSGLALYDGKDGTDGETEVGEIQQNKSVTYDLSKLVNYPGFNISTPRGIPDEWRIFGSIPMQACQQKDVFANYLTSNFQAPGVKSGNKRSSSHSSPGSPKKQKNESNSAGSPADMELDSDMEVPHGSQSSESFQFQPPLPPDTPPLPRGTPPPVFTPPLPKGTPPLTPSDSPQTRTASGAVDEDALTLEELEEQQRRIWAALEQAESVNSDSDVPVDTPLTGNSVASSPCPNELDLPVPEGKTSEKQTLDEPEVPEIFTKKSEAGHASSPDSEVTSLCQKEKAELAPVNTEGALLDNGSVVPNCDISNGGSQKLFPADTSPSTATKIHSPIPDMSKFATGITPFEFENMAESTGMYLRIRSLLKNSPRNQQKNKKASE
# UniProt Q9NQH7: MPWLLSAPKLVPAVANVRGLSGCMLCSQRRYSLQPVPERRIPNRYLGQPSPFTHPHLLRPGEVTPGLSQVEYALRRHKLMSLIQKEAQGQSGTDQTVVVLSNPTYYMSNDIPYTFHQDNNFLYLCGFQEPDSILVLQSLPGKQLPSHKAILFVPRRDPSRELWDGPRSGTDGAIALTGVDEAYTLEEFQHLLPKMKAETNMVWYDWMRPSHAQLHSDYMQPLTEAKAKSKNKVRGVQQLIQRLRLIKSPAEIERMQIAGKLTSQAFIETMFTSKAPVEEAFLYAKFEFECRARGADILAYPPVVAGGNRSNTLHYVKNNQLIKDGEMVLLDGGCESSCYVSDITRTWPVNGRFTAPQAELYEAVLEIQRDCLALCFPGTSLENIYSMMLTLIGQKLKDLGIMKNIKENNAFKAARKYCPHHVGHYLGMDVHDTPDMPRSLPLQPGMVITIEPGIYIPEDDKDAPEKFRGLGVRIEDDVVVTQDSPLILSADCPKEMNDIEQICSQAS
# UniProt Q96EC8: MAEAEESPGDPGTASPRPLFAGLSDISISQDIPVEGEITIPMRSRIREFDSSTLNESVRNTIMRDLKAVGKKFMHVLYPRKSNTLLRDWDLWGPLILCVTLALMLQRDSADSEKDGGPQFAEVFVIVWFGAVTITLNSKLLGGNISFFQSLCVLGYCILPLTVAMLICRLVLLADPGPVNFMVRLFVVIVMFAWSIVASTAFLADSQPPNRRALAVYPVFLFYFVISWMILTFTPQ
# UniProt Q9NUE0: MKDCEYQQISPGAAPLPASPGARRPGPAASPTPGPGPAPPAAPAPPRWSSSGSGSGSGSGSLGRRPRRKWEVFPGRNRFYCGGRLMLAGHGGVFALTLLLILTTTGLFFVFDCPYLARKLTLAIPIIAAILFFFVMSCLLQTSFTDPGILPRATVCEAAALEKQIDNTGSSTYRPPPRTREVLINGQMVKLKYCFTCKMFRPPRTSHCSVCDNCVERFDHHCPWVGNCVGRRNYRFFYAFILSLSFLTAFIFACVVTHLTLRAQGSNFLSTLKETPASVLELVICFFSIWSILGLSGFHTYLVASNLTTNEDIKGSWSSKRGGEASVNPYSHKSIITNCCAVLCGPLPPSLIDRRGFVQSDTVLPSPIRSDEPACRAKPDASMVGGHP
# UniProt P16989, whole entry, looked up: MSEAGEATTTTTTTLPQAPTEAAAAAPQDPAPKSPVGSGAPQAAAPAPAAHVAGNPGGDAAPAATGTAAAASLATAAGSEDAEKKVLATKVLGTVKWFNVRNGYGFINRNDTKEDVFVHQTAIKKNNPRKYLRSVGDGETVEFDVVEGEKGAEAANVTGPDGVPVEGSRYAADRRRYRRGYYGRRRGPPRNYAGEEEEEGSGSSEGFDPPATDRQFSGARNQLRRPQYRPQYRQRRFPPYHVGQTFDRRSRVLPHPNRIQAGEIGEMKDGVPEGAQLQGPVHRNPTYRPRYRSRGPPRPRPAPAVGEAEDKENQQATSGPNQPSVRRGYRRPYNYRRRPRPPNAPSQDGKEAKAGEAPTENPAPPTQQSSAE
# UniProt Q5VVQ6: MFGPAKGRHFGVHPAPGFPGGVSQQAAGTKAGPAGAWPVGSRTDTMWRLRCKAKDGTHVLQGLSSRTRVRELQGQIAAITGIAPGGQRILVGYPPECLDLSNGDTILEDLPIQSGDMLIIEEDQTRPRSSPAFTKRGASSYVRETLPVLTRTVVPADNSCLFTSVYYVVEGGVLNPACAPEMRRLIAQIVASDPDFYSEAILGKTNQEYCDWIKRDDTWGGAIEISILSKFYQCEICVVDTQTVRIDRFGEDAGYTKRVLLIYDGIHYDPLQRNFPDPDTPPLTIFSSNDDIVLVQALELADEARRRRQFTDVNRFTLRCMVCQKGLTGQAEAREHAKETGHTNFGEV
# UniProt Q9BSR8: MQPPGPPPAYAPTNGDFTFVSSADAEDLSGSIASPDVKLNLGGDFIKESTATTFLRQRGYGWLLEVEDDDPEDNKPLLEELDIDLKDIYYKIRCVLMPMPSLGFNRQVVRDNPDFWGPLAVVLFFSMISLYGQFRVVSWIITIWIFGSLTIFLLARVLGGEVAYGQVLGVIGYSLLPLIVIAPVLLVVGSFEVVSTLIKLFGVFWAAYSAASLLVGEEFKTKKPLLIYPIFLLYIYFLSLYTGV
# UniProt O60315: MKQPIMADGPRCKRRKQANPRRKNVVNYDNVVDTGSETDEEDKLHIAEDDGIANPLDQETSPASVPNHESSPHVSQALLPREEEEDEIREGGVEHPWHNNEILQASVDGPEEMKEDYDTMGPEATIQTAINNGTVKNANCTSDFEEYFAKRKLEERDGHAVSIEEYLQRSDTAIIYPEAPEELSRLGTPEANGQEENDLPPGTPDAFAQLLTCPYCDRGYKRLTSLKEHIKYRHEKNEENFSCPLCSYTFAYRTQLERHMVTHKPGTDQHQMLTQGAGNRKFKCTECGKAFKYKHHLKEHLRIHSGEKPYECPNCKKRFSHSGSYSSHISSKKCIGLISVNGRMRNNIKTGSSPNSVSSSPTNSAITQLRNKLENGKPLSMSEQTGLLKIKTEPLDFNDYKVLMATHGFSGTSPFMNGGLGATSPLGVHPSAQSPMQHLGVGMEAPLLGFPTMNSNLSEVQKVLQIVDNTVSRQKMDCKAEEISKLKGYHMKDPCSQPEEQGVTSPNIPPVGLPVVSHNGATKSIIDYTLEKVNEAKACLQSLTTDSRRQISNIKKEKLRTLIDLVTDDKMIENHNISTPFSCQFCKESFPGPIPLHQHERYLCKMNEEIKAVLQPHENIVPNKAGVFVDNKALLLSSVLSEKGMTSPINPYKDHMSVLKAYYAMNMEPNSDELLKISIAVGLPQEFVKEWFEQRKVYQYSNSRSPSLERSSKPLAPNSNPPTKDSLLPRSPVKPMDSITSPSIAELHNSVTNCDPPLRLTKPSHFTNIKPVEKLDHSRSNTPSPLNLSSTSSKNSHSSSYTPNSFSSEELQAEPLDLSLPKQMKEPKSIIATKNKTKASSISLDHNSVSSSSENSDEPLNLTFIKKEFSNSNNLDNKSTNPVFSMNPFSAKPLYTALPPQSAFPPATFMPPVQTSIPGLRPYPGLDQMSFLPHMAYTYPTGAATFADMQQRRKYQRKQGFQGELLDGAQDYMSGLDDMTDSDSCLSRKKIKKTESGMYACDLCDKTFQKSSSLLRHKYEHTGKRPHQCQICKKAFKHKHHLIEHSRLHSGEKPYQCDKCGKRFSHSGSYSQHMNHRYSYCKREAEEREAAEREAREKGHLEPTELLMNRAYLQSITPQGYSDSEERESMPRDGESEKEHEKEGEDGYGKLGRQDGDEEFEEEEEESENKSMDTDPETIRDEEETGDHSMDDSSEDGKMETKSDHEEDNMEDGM
# UniProt O43543: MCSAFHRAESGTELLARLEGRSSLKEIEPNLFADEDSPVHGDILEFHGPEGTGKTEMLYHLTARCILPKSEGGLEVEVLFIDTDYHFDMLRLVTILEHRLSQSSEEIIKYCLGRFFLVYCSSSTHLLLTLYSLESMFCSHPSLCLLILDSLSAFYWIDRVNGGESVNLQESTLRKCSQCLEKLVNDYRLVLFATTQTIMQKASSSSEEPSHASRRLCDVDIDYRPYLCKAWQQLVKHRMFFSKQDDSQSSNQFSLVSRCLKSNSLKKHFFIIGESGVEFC
# UniProt P17026: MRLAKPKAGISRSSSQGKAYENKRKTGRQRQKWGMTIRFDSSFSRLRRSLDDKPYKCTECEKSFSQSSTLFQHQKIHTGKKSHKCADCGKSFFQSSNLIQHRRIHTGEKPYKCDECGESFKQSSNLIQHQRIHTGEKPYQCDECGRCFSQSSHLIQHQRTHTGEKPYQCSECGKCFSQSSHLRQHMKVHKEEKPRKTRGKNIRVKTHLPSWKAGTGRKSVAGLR
# UniProt Q96NC0: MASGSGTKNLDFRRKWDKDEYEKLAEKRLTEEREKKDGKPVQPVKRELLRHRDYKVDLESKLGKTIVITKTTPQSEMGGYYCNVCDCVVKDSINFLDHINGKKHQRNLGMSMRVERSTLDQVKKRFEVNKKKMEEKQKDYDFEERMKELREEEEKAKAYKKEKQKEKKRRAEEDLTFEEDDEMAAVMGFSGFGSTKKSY
# UniProt O14980, whole entry, looked up: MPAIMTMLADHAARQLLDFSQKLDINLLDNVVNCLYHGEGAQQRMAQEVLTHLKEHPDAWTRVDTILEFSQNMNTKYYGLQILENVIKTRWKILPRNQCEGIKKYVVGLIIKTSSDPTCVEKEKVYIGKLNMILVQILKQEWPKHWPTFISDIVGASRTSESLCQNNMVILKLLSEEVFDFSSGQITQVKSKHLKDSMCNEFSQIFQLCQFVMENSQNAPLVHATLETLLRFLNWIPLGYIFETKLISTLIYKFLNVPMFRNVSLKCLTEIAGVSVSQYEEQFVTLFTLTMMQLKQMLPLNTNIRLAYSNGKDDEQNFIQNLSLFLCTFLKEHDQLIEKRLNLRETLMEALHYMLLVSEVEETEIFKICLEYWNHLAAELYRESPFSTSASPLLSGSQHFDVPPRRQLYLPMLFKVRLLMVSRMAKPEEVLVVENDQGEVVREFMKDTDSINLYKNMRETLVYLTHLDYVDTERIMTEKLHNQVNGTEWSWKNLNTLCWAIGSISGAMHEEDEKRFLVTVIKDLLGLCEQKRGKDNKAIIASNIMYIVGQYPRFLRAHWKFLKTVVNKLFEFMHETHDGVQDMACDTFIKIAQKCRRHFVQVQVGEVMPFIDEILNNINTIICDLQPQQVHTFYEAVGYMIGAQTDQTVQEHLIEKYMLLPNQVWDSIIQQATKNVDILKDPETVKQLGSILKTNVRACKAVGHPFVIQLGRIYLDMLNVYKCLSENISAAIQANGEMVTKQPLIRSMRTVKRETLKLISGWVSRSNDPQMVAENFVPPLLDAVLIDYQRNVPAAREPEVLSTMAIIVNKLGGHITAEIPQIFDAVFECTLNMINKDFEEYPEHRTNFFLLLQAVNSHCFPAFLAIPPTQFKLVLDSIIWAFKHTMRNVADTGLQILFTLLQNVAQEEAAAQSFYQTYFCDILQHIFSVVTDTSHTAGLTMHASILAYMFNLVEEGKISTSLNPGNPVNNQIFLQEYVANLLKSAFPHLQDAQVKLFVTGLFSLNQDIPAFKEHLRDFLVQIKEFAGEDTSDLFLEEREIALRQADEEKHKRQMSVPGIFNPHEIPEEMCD
# UniProt P18887, whole entry, looked up: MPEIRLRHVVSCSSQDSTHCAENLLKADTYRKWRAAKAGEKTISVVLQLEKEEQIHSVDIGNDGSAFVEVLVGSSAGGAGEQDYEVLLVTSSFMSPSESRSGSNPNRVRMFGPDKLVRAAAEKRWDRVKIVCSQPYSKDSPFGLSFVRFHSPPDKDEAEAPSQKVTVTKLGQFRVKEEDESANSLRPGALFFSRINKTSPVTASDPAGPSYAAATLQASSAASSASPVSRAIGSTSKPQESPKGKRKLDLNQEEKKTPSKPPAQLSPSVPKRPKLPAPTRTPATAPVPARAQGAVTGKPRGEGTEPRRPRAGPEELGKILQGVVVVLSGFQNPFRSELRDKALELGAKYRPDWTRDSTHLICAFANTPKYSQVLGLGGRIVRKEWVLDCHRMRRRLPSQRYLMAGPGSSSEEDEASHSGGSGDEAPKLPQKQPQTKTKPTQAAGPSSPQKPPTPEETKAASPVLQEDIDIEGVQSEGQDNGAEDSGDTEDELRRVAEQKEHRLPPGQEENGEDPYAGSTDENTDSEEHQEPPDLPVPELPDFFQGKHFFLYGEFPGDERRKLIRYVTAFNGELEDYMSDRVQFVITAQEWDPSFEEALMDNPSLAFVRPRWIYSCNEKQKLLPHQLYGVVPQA
# UniProt P62699: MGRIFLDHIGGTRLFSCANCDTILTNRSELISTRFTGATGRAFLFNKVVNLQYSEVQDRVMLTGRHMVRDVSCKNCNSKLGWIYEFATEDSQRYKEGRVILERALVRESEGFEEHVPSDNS
# The other results are listed elsewhere or left out.
# Assays:
# Test in all cases: log2 fold change, soluble protein after heating vs DMSO (PISA); higher = thermal stabilisation; K562 cells, 10 uM, 30 min; active = over 0.2 and 3.5 SD of the protein, either way, in both replicates (recomputed)
# [1] = compound: CN1CCN(CCOc2cc(OC3CCOCC3)c3c(Nc4c(Cl)ccc5c4OCO5)ncnc3c2)CC1 [saracatinib]
# Procedure, shortened: (§1)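 K562 cells at 2×10^6 cells/mL were exposed to 10 μM compound for 30 min, then aliquots were heated for 3 min across 48°C-58°C, pooled, and extracted in PBS containing 0.5% NP-40 at 4°C. The supernatant after 21,000xg for 90 min was taken as soluble protein and measured by TMTpro 16plex LC-MS/MS with channel sums equalised. Thermal stability is reported relative to control samples, with values from duplicates. Fold changes are given on a log2 scale.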
# [2] = compound: CN1CCN(c2nc(C3=C(c4c[nH]c5ccccc45)C(=O)NC3=O)c3ccccc3n2)CC1 [sotrastaurin]
# Procedure, shortened: as §1
# [3] = compound: CN1CC[C@H](c2c(O)cc(O)c3c(=O)cc(-c4ccccc4Cl)oc23)[C@H](O)C1 [alvocidib]
# Procedure, shortened: as §1
# [4] = compound: CN1CCc2c(c3ccccc3n2Cc2ccc(C(=O)NO)cc2)C1 [Tubastatin A]
# Procedure, shortened: as §1
# [5] = compound: CNC(=O)C1=CC=CC=C1NC2=NC(=NC=C2Cl)NC3=C(C=C(C=C3)N4CCOCC4)OC
# Procedure, shortened: as §1
# [6] = compound: CNC(=O)c1ccc(Nc2ncc(C(F)(F)F)c(NCc3nccnc3N(C)S(C)(=O)=O)n2)cc1 [defactinib]
# Procedure, shortened: as §1
# [7] = compound: CNCc1ccc(-c2[nH]c3cc(F)cc4c3c2CCNC4=O)cc1 [rucaparib]
# Procedure, shortened: as §1
# [8] = compound: CNc1nc(-c2ccc3c(N)n[nH]c3c2)cc(N2C[C@@H](C(=O)NC3CCCCC3)CC[C@H]2C)n1
# Procedure, shortened: as §1
# [9] = compound: COC(=O)N[C@@H](C)CNc1nccc(-c2cn(C(C)C)nc2-c2cc(Cl)cc(NS(C)(=O)=O)c2F)n1 [encorafenib]
# Procedure, shortened: as §1
# [10] = compound: COC(=O)[C@H](CCSC)NC(=O)C1=C(C=C(C=C1)NC[C@H](CS)N)C2=CC=CC=C2
# Procedure, shortened: as §1
Target,log2 fold change [1],log2 fold change [2],log2 fold change [3],log2 fold change [4],log2 fold change [5],log2 fold change [6],log2 fold change [7],log2 fold change [8],log2 fold change [9],log2 fold change [10]
ZCCHC8 (UniProt Q6NZY4),inactive: -0.058,inactive: -0.013,inactive: -0.006,inactive: -0.019,inactive: 0.112,inactive: 0.002,inactive: 0.04,inactive: 0.011,inactive: -0.004,inactive: 0.027
XPNPEP3 (UniProt Q9NQH7),inactive: 0.022,inactive: -0.017,,inactive: -0.021,inactive: 0,inactive: -0.033,inactive: -0.018,inactive: -0.035,inactive: -0.005,inactive: 0.038
ZBTB24 (UniProt O43167),inactive: -0.042,inactive: -0.039,inactive: 0.193,inactive: 0.193,inactive: -0.056,,inactive: 0.119,inactive: 0.078,inactive: 0.055,
YRDC (UniProt Q86U90),inactive: -0.007,inactive: 0.027,inactive: -0.046,inactive: 0.054,inactive: -0.029,inactive: -0.019,inactive: -0.006,inactive: -0.041,inactive: -0.015,inactive: 0.013
XRCC6 (UniProt P12956),inactive: -0.013,inactive: -0.114,,inactive: 0.099,inactive: -0.047,active: -0.264,inactive: -0.007,inactive: -0.015,inactive: 0.048,inactive: -0.041
XPR1 (UniProt Q9UBH6),inactive: 0.006,inactive: -0.014,inactive: -0.022,inactive: 0.025,inactive: 0,inactive: -0.023,inactive: 0,inactive: 0.002,inactive: 0.045,inactive: 0.002
XPO6 (UniProt Q96QU8),inactive: -0.012,inactive: -0.119,,inactive: -0.009,inactive: 0.036,inactive: -0.104,inactive: 0.076,inactive: 0.037,inactive: 0.015,inactive: -0.03
YIPF6 (UniProt Q96EC8),inactive: -0.023,active: -0.648,,inactive: -0.01,inactive: -0.006,inactive: -0.041,inactive: 0.055,inactive: -0.039,inactive: -0.042,inactive: 0.041
ZDHHC18 (UniProt Q9NUE0),inactive: 0.16,inactive: -0.041,inactive: -0.038,inactive: -0.027,inactive: 0.057,,inactive: -0.15,inactive: 0.138,inactive: -0.089,
ZMYM3 (UniProt Q14202),inactive: 0.098,inactive: 0.027,,inactive: -0.028,inactive: 0,inactive: -0.013,inactive: 0.049,inactive: -0.004,inactive: -0.032,inactive: 0.035
YTHDF2 (UniProt Q9Y5A9),inactive: -0.026,inactive: 0.047,inactive: -0.026,inactive: 0.021,inactive: -0.034,inactive: -0.006,inactive: 0.026,inactive: -0.013,inactive: 0.015,inactive: -0.035
YBX3 (UniProt P16989),inactive: -0.01,inactive: 0.058,inactive: 0.242,inactive: 0.012,inactive: 0.044,inactive: 0.251,inactive: 0.249,inactive: 0.028,inactive: 0.028,inactive: 0.048
ZMIZ1 (UniProt Q9ULJ6),inactive: 0.031,inactive: -0.002,inactive: 0.002,inactive: -0.001,inactive: -0.04,inactive: -0.055,inactive: -0.1,inactive: -0.023,inactive: 0.016,inactive: 0.021
ZDHHC17 (UniProt Q8IUH5),inactive: -0.009,inactive: 0.099,,inactive: -0.012,inactive: 0.146,inactive: -0.007,inactive: -0.034,inactive: 0.017,inactive: -0.015,inactive: 0.01
XIRP2 isoform 8 (UniProt A4UGR9),inactive: 0.003,inactive: 0.196,inactive: 0.203,inactive: -0.071,inactive: -0.152,,inactive: 0.006,inactive: -0.04,inactive: -0.034,
YOD1 (UniProt Q5VVQ6),inactive: -0.034,inactive: 0.034,,inactive: 0.072,inactive: 0.011,inactive: -0.103,inactive: -0.041,inactive: 0.011,inactive: 0.02,inactive: -0.016
XRCC5 (UniProt P13010),inactive: -0.057,inactive: -0.332,,inactive: 0.173,inactive: -0.032,inactive: -0.37,inactive: 0.07,inactive: 0.048,inactive: 0.21,inactive: -0.067
YIPF4 (UniProt Q9BSR8),inactive: 0.072,inactive: 0.113,,inactive: -0.028,inactive: 0.062,inactive: -0.016,inactive: -0.028,inactive: -0.082,inactive: -0.038,inactive: 0.088
ZEB2 (UniProt O60315),inactive: 0.008,inactive: -0.056,,inactive: 0.181,inactive: -0.07,inactive: 0.019,,inactive: -0.09,,inactive: -0.382
XRCC2 (UniProt O43543),inactive: -0.014,,inactive: -0.118,,inactive: -0.025,,,inactive: 0.155,,
YLPM1 (UniProt P49750),inactive: 0,inactive: 0.021,,inactive: 0.039,inactive: -0.006,inactive: -0.019,inactive: -0.07,inactive: 0.006,inactive: 0.052,inactive: -0.014
ZNF22 (UniProt P17026),inactive: -0.139,,inactive: 0.18,inactive: 0.195,inactive: 0.135,,,inactive: 0.017,,
ZMAT2 (UniProt Q96NC0),inactive: 0.026,inactive: -0.088,,inactive: 0.057,inactive: -0.018,inactive: -0.014,inactive: -0.206,inactive: -0.058,inactive: 0.106,inactive: 0.019
XPO1 (UniProt O14980),inactive: 0.003,inactive: -0.088,,inactive: 0.001,inactive: -0.028,inactive: -0.093,inactive: -0.012,inactive: 0.02,inactive: 0.094,inactive: -0.041
XRCC1 (UniProt P18887),inactive: 0.008,inactive: -0.264,,inactive: 0.055,inactive: 0.05,,,inactive: 0.148,,
YPEL5 (UniProt P62699),inactive: 0.069,inactive: -0.102,,,inactive: 0.08,inactive: -0.073,inactive: 0.002,inactive: -0.06,inactive: -0.001,inactive: -0.23
YWHAB (UniProt P31946),inactive: 0.014,inactive: 0.031,,inactive: -0.014,inactive: 0.019,inactive: -0.022,inactive: -0.078,inactive: -0.015,inactive: -0.003,inactive: 0.016

# Nothing new here: entries from further up.
Target,log2 fold change [1],log2 fold change [2],log2 fold change [3],log2 fold change [4],log2 fold change [5],log2 fold change [6],log2 fold change [7],log2 fold change [8],log2 fold change [9],log2 fold change [10]
YLPM1 (UniProt P49750),inactive: 0,inactive: 0.021,,inactive: 0.039,inactive: -0.006,inactive: -0.019,inactive: -0.07,inactive: 0.006,inactive: 0.052,inactive: -0.014
ZNF22 (UniProt P17026),inactive: -0.139,,inactive: 0.18,inactive: 0.195,inactive: 0.135,,,inactive: 0.017,,
